# Values quoted from earlier work, collected in US20100324036A1, “SUBSTITUTED IMIDAZOPYRIDINE DERIVATIVES AS MELANOCORTIN-4 RECEPTOR ANTAGONISTS” (SANTHERA PHARMACEUTICALS (SCHWEIZ) AG, priority 2007, published 2010).
# Settings: control compounds of the Caco-2 assay; Zhao et al. 2001; cited from earlier work
compound,measurement,value
CC(C)NCC(O)COc1ccc(CC(N)=O)cc1 (stereo not shown) [atenolol],human absorption,approximately 50%
